# Reference: patent US7365173
# Amino acid sequences for entries named in this document (tags omitted). Residues count along the entry.
# UniProt P06276, residues 29-602: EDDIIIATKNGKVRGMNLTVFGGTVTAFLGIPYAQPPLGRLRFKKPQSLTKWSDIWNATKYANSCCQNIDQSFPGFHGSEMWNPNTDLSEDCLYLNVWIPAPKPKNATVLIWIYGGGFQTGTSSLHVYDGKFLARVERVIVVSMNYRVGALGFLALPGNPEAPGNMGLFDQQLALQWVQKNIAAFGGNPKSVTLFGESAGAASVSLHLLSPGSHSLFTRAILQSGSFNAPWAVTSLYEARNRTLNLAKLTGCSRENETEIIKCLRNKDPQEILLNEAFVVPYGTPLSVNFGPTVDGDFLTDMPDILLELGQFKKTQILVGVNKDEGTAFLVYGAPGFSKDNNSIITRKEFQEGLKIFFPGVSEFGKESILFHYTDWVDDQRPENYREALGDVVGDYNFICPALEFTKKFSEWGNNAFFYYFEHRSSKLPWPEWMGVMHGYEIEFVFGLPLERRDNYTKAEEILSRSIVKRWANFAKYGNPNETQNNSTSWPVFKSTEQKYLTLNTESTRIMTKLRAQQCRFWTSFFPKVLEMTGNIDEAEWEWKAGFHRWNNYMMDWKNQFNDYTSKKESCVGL
# Results are given in words; binding and its absence hold for the method and conditions named. Some entries that bind do so weakly or less than the wild type.
# Target: butyrylcholinesterase (human) (UniProt P06276)
# Test: screen of bead-bound combinatorial peptide library with radiolabeled butyrylcholinesterase plus butyrylthiocholine/DTNB activity stain
row,Binder,binding
1,AFTNGE [AFTNGE (SEQ ID NO: 6)],binds
2,WKDAVQ [WKDAVQ (SEQ ID NO: 3)],binds
3,AKGDQN [AKGDQN (SEQ ID NO: 2)],binds
4,AKDQIP [AKDQIP (SEQ ID NO: 1)],binds
5,AEVDPG [AEVDPG (SEQ ID NO: 9)],binds
6,GTNYHQ [GTNYHQ (SEQ ID NO: 8)],binds
7,AFTNQE [AFTNQE (SEQ ID NO: 7)],binds
